# Results as given in paper PMC6925144, “A prospective compound screening contest identified broader inhibitors for Sirtuin 1” (Scientific Reports, 2019).
# Sequences of proteins named here, by UniProt entry; tags and fusion partners are left off. Residues count along the entry.
# UniProt Q96EB6, 2-747 limits assumed: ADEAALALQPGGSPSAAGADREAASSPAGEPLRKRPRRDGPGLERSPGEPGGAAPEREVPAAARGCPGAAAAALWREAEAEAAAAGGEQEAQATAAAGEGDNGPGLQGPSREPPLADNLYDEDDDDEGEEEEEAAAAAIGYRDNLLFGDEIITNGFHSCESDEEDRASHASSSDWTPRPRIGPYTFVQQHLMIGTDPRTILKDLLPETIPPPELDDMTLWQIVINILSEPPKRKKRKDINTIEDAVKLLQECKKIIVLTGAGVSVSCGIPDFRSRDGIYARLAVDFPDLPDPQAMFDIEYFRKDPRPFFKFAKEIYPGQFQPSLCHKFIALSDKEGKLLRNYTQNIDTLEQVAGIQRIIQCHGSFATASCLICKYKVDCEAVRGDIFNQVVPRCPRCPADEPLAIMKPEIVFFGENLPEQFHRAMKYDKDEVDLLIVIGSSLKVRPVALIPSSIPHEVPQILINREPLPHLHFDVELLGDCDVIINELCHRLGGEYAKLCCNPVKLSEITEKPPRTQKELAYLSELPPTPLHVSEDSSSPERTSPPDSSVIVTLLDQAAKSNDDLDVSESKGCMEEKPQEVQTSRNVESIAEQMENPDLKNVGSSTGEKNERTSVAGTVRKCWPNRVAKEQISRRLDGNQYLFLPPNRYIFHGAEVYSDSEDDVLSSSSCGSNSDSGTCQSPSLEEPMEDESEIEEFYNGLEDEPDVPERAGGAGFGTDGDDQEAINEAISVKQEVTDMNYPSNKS
# In all, about 3,200 compounds were measured (“TSA(with NAD+) / Primary screening (TSA) / delta Tm (K)”: median about -0.04, highest 2% from about 0.37 on). The list shows a part of the results.
# Target: NAD-dependent deacetylase Sirtuin 1 (human, UniProt Q96EB6)
# Assay: primary screen, delta tm
# Set-up: single well (n = 1, as 'the same TSA')
# Conditions: 10 µM
row,Structure (SMILES),TSA(with NAD+) / Primary screening (TSA) / delta Tm (K)
1,Cc1ccc2[nH]c(-c3cccs3)c(CCC(=O)O)c2c1,-0.19
2,COC(=O)CC(C)C(=O)NCc1c(C)nc2c(c1C)c(=O)[nH]n2C (stereo not drawn),-0.02
3,COc1ncccc1CNC(=O)CN(C)c1ncnc2nc[nH]c12,-0.03
4,COc1cc(C)ccc1OCC(=O)Nc1nc2c(s1)CN(C)CC2,-0.06
5,O=C(O)c1cnc2[nH]c3ccccc3n2c1=O,-0.08
6,CC(C)(CNc1cccc(F)c1[N+](=O)[O-])C(N)=O,-0.02
7,NC(=O)c1ccc(-c2nnn(CC(=O)Nc3ccccc3N3CCCC3)n2)cc1,-0.03
8,CC(C)c1ccc(-n2cc(O)c(C(=O)N(C)CC(=O)O)n2)cc1,-0.11
9,NC(=O)c1csc(C(=O)Oc2cccc(-n3cccn3)c2)c1,-0.03
10,O=C(CSc1nnc(-c2ccccc2)o1)N(Cc1ccccc1)c1nc2c(s1)CCCC2,0.08
11,Cc1csc(NC(=O)c2cc(S(=O)(=O)Nc3ccccc3C)ccc2C)n1,-0.01
12,Cc1noc(CN2CCN(c3ncnc4c3oc3ccccc34)CC2)n1,-0.13
13,Cc1cc(C(C)NCCCO)ccc1Br (stereo not drawn),-0.03
14,CC(=O)NC12CC3CC(C1)CC(C(=O)NNC(=O)COc1ccccc1Cc1ccccc1)(C3)C2,-0.28
15,Cc1cc(C(=O)O)ncc1C#N,0.05
16,CS(=O)(=O)c1ccc(C(=O)N(Cc2ccccc2)c2ccccc2)cc1,-0.05
17,NCCCCCCN,0.09
18,Cc1cc(C(=O)CSc2nncn2-c2ccccc2)c(C)n1C1CC1,-0.04
19,CCCOc1ccc(C2C(C(=O)c3cccs3)=C(O)C(=O)N2CCCN2CCOCC2)cc1 (stereo not drawn),0.01
20,Cc1ccc2nc(C)c(C(=O)Nc3ccccc3NC(=O)N3CCCC3)cc2c1,-0.22
21,CC(C)C(=O)N1CCCCC1C(=O)NCC1CCCN(Cc2cccs2)C1 (stereo not drawn),-0.01
22,O=C1NC(=O)c2cc([N+](=O)[O-])ccc21,-0.01
23,COc1ccc(NC(=O)c2cccc(S(=O)(=O)N(C)c3ccc(OC)cc3)c2)cc1,-0.02
24,COc1cc(CN(C)C(=O)c2ccc(N3CCCC3=O)cc2)ccc1OCc1ccccc1,-0.11

row,Structure (SMILES),TSA(with NAD+) / Primary screening (TSA) / delta Tm (K)
1,CN(c1cccc(Cl)c1)S(=O)(=O)c1cccc(C(=O)OCc2cc(=O)oc3ccc4ccccc4c23)c1,0.06
2,O=C(CCn1[nH]c(=O)ccc1=O)Nc1nc(SCc2ccccc2)ns1,-0.06
3,O=C(CCCn1c(=O)oc2ccccc21)Nc1cccc(S(=O)(=O)NCc2ccco2)c1,-0.11
4,COc1ccc(N(C)S(=O)(=O)c2cccc(C(=O)OCc3ccc(C#N)cc3)c2)cc1,-0.03
5,C=C(C)CSc1nnc(S)s1,-0.09
6,O=C1Nc2c(Cl)cc(Cl)cc2C1=O,-0.61
7,c1nc(N2CCCSCC2)c2sccc2n1,0.09
8,CN(C)C(=O)Cc1ccc(/N=C/c2cc3ccccc3nc2O)cc1,-0.12
9,CCNC(=O)NCc1ccc(NC(=O)Cc2cn(CC)c3ccccc23)cc1,0.09
10,O=C(COC(=O)C1=COCCO1)Nc1cccc2c1C(=O)c1ccccc1C2=O,0.01
11,NC(=O)C1CCN(c2nc(CN3CCCCC3)nc3sc4c(c23)CCC4)CC1,-0.19
12,O=C(CCn1ccc2ccccc21)NCC(c1ccccc1)N1CCCC1 (stereo not drawn),-0.19
13,COc1ccc(NC(=O)c2ccc(NC(=O)COC(=O)C34CC5CC(CC(Br)(C5)C3)C4)cc2)cc1,0.73
14,O=C1Nc2ccccc2/C1=C\c1cn(CCOc2ccccc2)c2ccc(Br)cc12,0.13
15,c1ccc(CNc2ncnc3ccsc23)cc1,0.02
16,O=C(NC(c1ccccc1)c1ccc2[nH]cnc2c1)C1=COCCO1 (stereo not drawn),0.18
17,CC(OC(=O)c1ccc(C(N)=O)cc1)C(=O)N1CCCc2ccccc21 (stereo not drawn),-0.11
18,O=C(Nc1ccccc1)C1CCCN1C(=O)Cn1c(SC(F)F)nc2ccccc21 (stereo not drawn),-0.11
19,C=CCOc1ccc(C(=O)C2=C(O)C(=O)N(CCCN3CCOCC3)C2c2ccco2)cc1 (stereo not drawn),0.07
20,O=C(OCC(=O)C12CC3CC(CC(C3)C1)C2)c1ccc2c(c1)C(=O)N(Cc1ccco1)C2=O,0.09
21,Cc1cc2occ(CC(=O)N3CCN(S(=O)(=O)c4cc(C(N)=O)n(C)c4)CC3)c2cc1C(C)C,-0.09
22,O=C(NCCCc1nc2ccccc2[nH]1)C(=O)Nc1cccnc1,0.01
23,NC(=O)c1cc(C2CCCN(c3nccc(-n4cccn4)n3)C2)n[nH]1 (stereo not drawn),0.05
24,CC(C(=O)Nc1ccc(C(N)=O)cc1)N1CCN(c2ccc(O)cc2)CC1 (stereo not drawn),-0.06

# Taken from the listing for reference:
row,Structure (SMILES),TSA(with NAD+) / Primary screening (TSA) / delta Tm (K)
8,CC(C)c1ccc(-n2cc(O)c(C(=O)N(C)CC(=O)O)n2)cc1,-0.11
9,NC(=O)c1csc(C(=O)Oc2cccc(-n3cccn3)c2)c1,-0.03
10,O=C(CSc1nnc(-c2ccccc2)o1)N(Cc1ccccc1)c1nc2c(s1)CCCC2,0.08
